Experimental data: PubChem BioAssay AID504786 (Drosophila RNAi Screening Center, 2011)

Screen: 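Knock-downs reducing HIF reporter induction by the iron chelator DFO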 (primary screen)
System: Drosophila S2 cells with a stable HIF luciferase reporter
Reagents: long dsRNA against Drosophila genes, about 0.2 µg dsRNA per well of a 384-well plate
Time to read-out: three days of knock-down, then 20 h of DFO before reading
Conditions: desferrioxamine (DFO) at 100 µM, an iron chelator that mimics hypoxia, for 20 h
Detection: 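Firefly luciferase driven by the mouse ldh-a hypoxia-response element, measured after 20 h of 100 µM DFO; z-scores per plate, higher means more signal lost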
Reading the numbers: z-score: higher = stronger loss of HIF reporter signal
The screen tested about 21,000 reagents; this is a random part of those with a known target gene and a result. 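Primary screen; positive scores mean lost reporter signal, so the sign may be inverted from the usual convention.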 A plus sign joins genes that one reagent is predicted to hit. Further read-outs or replicates are left out here.

target gene	dsRNA	z-score, replicate 1	z-score, replicate 2	z-score, replicate 3
CG30340	DRSC05167	-0.1	-0.1	
CG44014	DRSC14995	-0.1	-0.2	
CG14183	DRSC10182	-0.3	-0.5	
EloA	DRSC16109	0.3	0.8	
S-Lap7	DRSC06374	0.2	0	
CG31793	DRSC02605	-0.4	-0.3	
l(1)G0020	DRSC18198	0	0.7	
Sidpn	DRSC02056	-0.3	-0.5	
CG6983	DRSC10757	-0.4	-0.8	
CG13540	DRSC04182	-0.3	0.1	
Gnptab	DRSC07057	-0.3	-0.4	
CG4281	DRSC18521	-0.3	0.3	
CG32772	DRSC18052	-0.4	-0.5	4.6
CG32772	DRSC18406	-0.3	-0.2	
CG13229	DRSC06349	-0.1	-0.2	
Rpt3	DRSC20283	6.5	4.1	
ppk	DRSC03595	-0.3	-0.5	
SkpF + CG5357 (retired record)	DRSC04120	-0.5	-0.5	
und	DRSC03629	-0.1	0.1	
mesh	DRSC14472	-0.5	-0.6	-0.3
mesh	DRSC15098	-0.2	-0.4	
mesh	DRSC15099	-0.1	0.3	
CG1572	DRSC19686	-0.3	-0.5	
CG4022	DRSC10395	0	-0.1	
CG14054	DRSC17909	-0.2	-0.2	
CG10444	DRSC05990	-0.3	0.8	
CG7985	DRSC14128	-0.2	-0.7	
CG34338	DRSC17535	-0.1	-0.3	
Fur1	DRSC13707	3.2	3.4	
Fur1	DRSC16676	1.8	1.4	
CG8028	DRSC20075	-0.4	-0.8	
l(2)03659	DRSC07269	-0.3	-0.8	
l(2)03659	DRSC07638	-0.3	-0.5	
Pex6 + Hao	DRSC06097	-0.3	0.5	
Pex6 + Hao	DRSC06704	0.2	0.7	
CG30148	DRSC06391	-0.2	-0.4	
CG34161	DRSC01132	-0.3	-0.4	
Trs23	DRSC03190	-0.5	-0.6	
CG32564	DRSC19933	-0.4	-0.5	
Rrp47	DRSC20124	-0.2	0.5	
Vps26	DRSC18555	0	-0.1	
lab	DRSC12627	-0.2	-0.8	
CG6071	DRSC10579	-0.2	-0.5	
CG31954	DRSC00580	-0.3	-0.2	
CG11586	DRSC08203	-0.1	-0.4	
ABCB7	DRSC08603	-0.3	-0.5	
CG43737	DRSC19609	-0.1	-0.1	
Pgcl	DRSC18815	-0.4	0.7	
Mos	DRSC07258	-0.3	-0.1	
CG14431	DRSC17925	-0.2	-0.7	
CG16974	DRSC02551	-0.1	-0.3	
Fancd2	DRSC15208	0	-0.4	
Nab2	DRSC14158	-0.2	0.2	
CG13743	DRSC05139	-0.1	-0.8	-0.2
CG13743	DRSC06414	0.1	0.4	
prel	DRSC07271	-0.4	-0.4	
CG5282	DRSC11775	-0.3	-0.5	
Rsph1	DRSC02864	-0.2	-0.1	
CG11655	DRSC19413	-0.1	-0.5	
CG9628	DRSC11082	-0.3	-0.3	
Sox21a	DRSC10819	-0.2	0	
Atf3	DRSC17225	3.5	3.2	
gem	DRSC06093	-0.4	-0.7	
gem	DRSC06847	0	0.3	
Srp72	DRSC15800	-0.5	-1.3	
CG34223	DRSC05268	-0.2	0	
RhoGAP92B	DRSC14507	-1.1	-0.9	
RhoGAP92B	DRSC15637	-0.7	-1.2	
Cp7Fc	DRSC18035	-0.1	-0.5	
CG43078	DRSC10292	-0.3	-0.5	
CG43078	DRSC10608	-0.2	-0.3	
BtbVII	DRSC08151	0.9	0	
BtbVII	DRSC08415	-0.3	-0.5	
Lcp65Aa	DRSC11209	-0.4	-0.8	
Sgs1	DRSC00787	-0.2	-0.4	
Sgs1	DRSC00848	-0.5	-0.1	
CG8204	DRSC07106	0.1	0.1	
S2P	DRSC07311	-0.4	-0.5	
CG8245	DRSC04901	0	-0.2	
GstD2	DRSC16684	-0.1	-0.1	
Gcn2	DRSC16678	-0.3	-0.2	
CG33286	DRSC11691	-0.3	-0.5	
mRpS22	DRSC14488	0.5	0.6	

Reformatted: entries from further up
Pex6 + Hao [DRSC06097] | z-score, replicate 1: -0.3; z-score, replicate 2: 0.5
Pex6 + Hao [DRSC06704] | z-score, replicate 1: 0.2; z-score, replicate 2: 0.7
CG30148 [DRSC06391] | z-score, replicate 1: -0.2; z-score, replicate 2: -0.4
CG34161 [DRSC01132] | z-score, replicate 1: -0.3; z-score, replicate 2: -0.4
Trs23 [DRSC03190] | z-score, replicate 1: -0.5; z-score, replicate 2: -0.6
CG32564 [DRSC19933] | z-score, replicate 1: -0.4; z-score, replicate 2: -0.5
Rrp47 [DRSC20124] | z-score, replicate 1: -0.2; z-score, replicate 2: 0.5
Vps26 [DRSC18555] | z-score, replicate 1: 0; z-score, replicate 2: -0.1
lab [DRSC12627] | z-score, replicate 1: -0.2; z-score, replicate 2: -0.8
CG6071 [DRSC10579] | z-score, replicate 1: -0.2; z-score, replicate 2: -0.5
CG31954 [DRSC00580] | z-score, replicate 1: -0.3; z-score, replicate 2: -0.2
CG11586 [DRSC08203] | z-score, replicate 1: -0.1; z-score, replicate 2: -0.4
